Measurements from PubChem BioAssay AID248 (DTP/NCI, 2004).
The list is a part of this screen's results and no random one: it is rich in T/C values a quarter to a half above the control, in often repeated tests (any T/C) and in doses without a T/C. Further doses and runs are listed elsewhere. T/C: endpoint of the treated group in % of that of the vehicle group. Some doses have a count of surviving animals in place of a T/C: the source files T/C as zero there, which appears to mark a toxic dose or a test without result, not a measured value. Some doses without a T/C left all or most animals alive at the check, yet need not have been tolerated: the source hardly ever lists a survival T/C far under the control, and the zero likely stands for such cases as well. Survivors were counted at the toxicity check, usually on the fifth day, unless a day is given; later deaths do not show. Schedules are NCI's codes, read here as Q, the interval in days (D) or hours (H), X, the number of doses. Some schedule codes hold Z or #, which are not explained here. Where survival is the endpoint, the PubChem record calls one and a half times the control and up active, and a quarter to a half above the control has no call in these data; cut-offs in other NCI protocols can differ.

System: L1210 leukemia ip in BDF1 mice, survival T/C
Experiment: NCI In Vivo Anticancer Drug Screen. Data for tumor model L1210 Leukemia (intraperitoneal) in B6D2F1 (BDF1) mice
Conditions: T/C endpoint: mean survival time, higher T/C = longer survival
[1] = dose: 200.0 mg/kg/injection, schedule: Q04DX002 (ip), vehicle: saline with Tween-80
[2] = dose: 400.0 mg/kg/injection, schedule: Q01DX009 (ip), vehicle: saline
[3] = dose: 100.0 mg/kg/injection, schedule: Q04DX003 (ip), vehicle: saline with Tween-80
[4] = dose: 200.0 mg/kg/injection, schedule: Q04DX003 (ip), vehicle: saline with Tween-80
[5] = dose: 400.0 mg/kg/injection, schedule: Q04DX003 (ip), vehicle: saline with Tween-80
[6] = dose: 400.0 mg/kg/injection, schedule: Q04DX003 (ip), vehicle: Klucel (hydroxypropylcellulose) (HPC)
[7] = dose: 400.0 mg/kg/injection, schedule: Q04DX003 (ip), vehicle: saline
[8] = dose: 200.0 mg/kg/injection, schedule: Q01DX001 (ip), vehicle: saline
[9] = dose: 400.0 mg/kg/injection, schedule: Q01DX001 (ip), vehicle: saline
[10] = dose: 400.0 mg/kg/injection, schedule: Q01DX009 (ip), vehicle: saline with Tween-80
[11] = dose: 300.0 mg/kg/injection, schedule: Q01DX001 (ip), vehicle: carboxymethylcellulose (CMC)
[12] = dose: 150.0 mg/kg/injection, schedule: Q01DX001 (ip), vehicle: saline
[13] = dose: 400.0 mg/kg/injection, schedule: Q04DX002 (ip), vehicle: Klucel (hydroxypropylcellulose) (HPC)

## CCCCN(CCCC)C(=N)C(=N)N(CCCC)CCCC
[1]
  survivor count: 1 of 3

## NCc1ccccc1F
[2]
  survivor count: 5 of 6

## N#CC[CH2][Sn]([I])([c]1ccccc1)[c]1ccccc1
[3]
  survivor count: 0 of 3
[4]
  survivor count: 0 of 3
[5]
  survivor count: 0 of 3

## CCCCCCCCCCCCn1cnc2ncnc(Cl)c21
dose: 200.0 mg/kg/injection, schedule: Q01DX005 (ip), vehicle: other
  survivor count: 4 of 6

## CCOC(=O)Oc1c(OC)cc(C(=O)O[C@@H]2C[C@@H]3CN4CCc5c([nH]c6cc(OC)ccc56)[C@H]4C[C@@H]3[C@H](C(=O)OC)[C@H]2OC)cc1OC
[6]
  survivor count: 0 of 4

## CC(=O)Nc1ccc(/C=N/NC(N)=S)cc1
dose: 400.0 mg/kg/injection, schedule: Q04DX013 (ip), vehicle: carboxymethylcellulose (CMC)
  survivor count: 6 of 6

## O=C1CSC2=NCCN12
[7]
  survivor count: 0 of 6

## COc1cc2c(c(OC)c1OC)-c1ccc(=O)c(N)cc1C(NC(C)=O)CC2 (stereo not given)
dose: 120.0 mg/kg/injection, schedule: Q01DX Z (ip), vehicle: carboxymethylcellulose (CMC)
  T/C: 125 % of control

## CCC(CC)C(=O)O.[Ag]
[8]
  survivor count: 0 of 4
[9]
  survivor count: 0 of 4

## CN(CC#CCOc1ccc(Cl)cc1)c1ccccc1
dose: 100.0 mg/kg/injection, schedule: Q04DX002 (ip), vehicle: carboxymethylcellulose (CMC)
  survivor count: 3 of 3
dose: 200.0 mg/kg/injection, schedule: Q04DX002 (ip), vehicle: carboxymethylcellulose (CMC)
  survivor count: 3 of 3

## COc1ccc(OC)c(NC(=O)CI)c1
dose: 100.0 mg/kg/injection, schedule: Q01DX001 (ip), vehicle: Klucel (hydroxypropylcellulose) (HPC)
  survivor count: 0 of 6
dose: 200.0 mg/kg/injection, schedule: Q01DX001 (ip), vehicle: Klucel (hydroxypropylcellulose) (HPC)
  survivor count: 1 of 6
dose: 400.0 mg/kg/injection, schedule: Q01DX001 (ip), vehicle: Klucel (hydroxypropylcellulose) (HPC)
  survivor count: 0 of 6

## Cn1cc(/C=C/C(N)=O)c2nccnc21
dose: 50.0 mg/kg/injection, schedule: Q01DX009 (ip), vehicle: water
  survivor count: 0 of 6
dose: 100.0 mg/kg/injection, schedule: Q01DX009 (ip), vehicle: water
  survivor count: 0 of 6
dose: 200.0 mg/kg/injection, schedule: Q01DX009 (ip), vehicle: water
  survivor count: 0 of 6
dose: 400.0 mg/kg/injection, schedule: Q01DX009 (ip), vehicle: water
  survivor count: 0 of 6

## C#CC1(O)CCCC(C)C1 (stereo not given)
[10]
  survivor count: 0 of 6

## CCOC(=O)CNCC(O)C(Cl)(Cl)Cl (stereo not given)
[10]
  survivor count: 5 of 6

## CCNCCCOCC
dose: 100.0 mg/kg/injection, schedule: Q01DX009 (ip), vehicle: saline
  survivor count: 5 of 6
dose: 200.0 mg/kg/injection, schedule: Q01DX009 (ip), vehicle: saline
  survivor count: 0 of 6
[7]
  survivor count: 0 of 6

## CCOC(=O)OC(C#N)c1ccccc1 (stereo not given)
dose: 50.0 mg/kg/injection, schedule: Q01DX009 (ip), vehicle: saline with Tween-80
  survivor count: 0 of 6
dose: 100.0 mg/kg/injection, schedule: Q01DX009 (ip), vehicle: saline with Tween-80
  survivor count: 0 of 6
dose: 200.0 mg/kg/injection, schedule: Q01DX009 (ip), vehicle: saline with Tween-80
  survivor count: 0 of 6
[10]
  survivor count: 0 of 6

## C1CCC(CC2CCNCC2)CC1
[3]
  survivor count: 1 of 6
[4]
  survivor count: 0 of 6
[5]
  survivor count: 0 of 6

## COc1ccc2c(c1)C1(C)CCN(CCc3ccccc3)C(C2)C1C (stereo not given)
[11]
  survivor count: 2 of 6

## O=NN1C(=O)C2CC3CC(C2)CC1C3
dose: 100.0 mg/kg/injection, schedule: Q04DX003 (ip), vehicle: alcohol
  survivor count: 0 of 6
dose: 200.0 mg/kg/injection, schedule: Q04DX003 (ip), vehicle: alcohol
  survivor count: 2 of 6
dose: 400.0 mg/kg/injection, schedule: Q04DX003 (ip), vehicle: alcohol
  survivor count: 0 of 6

## Cc1cc(N(CCCOS(C)(=O)=O)CCCOS(C)(=O)=O)ccc1C=Nc1ccc2ccccc2c1
[3]
  survivor count: 6 of 6
[4]
  survivor count: 6 of 6

## Nc1ncnc2c1ncn2C(/C=N/Nc1ccccc1)OC(/C=N\Nc1ccccc1)CO (stereo not given)
dose: 400.0 mg/kg/injection, schedule: Q01DX001 (ip), vehicle: other
  survivor count: 1 of 6

## c1cc2c(cc1CNC1CCCCC1)OCO2
[12]
  survivor count: 2 of 6
dose: 300.0 mg/kg/injection, schedule: Q01DX001 (ip), vehicle: saline
  survivor count: 1 of 6

## O=C1C=CC(=O)C2=C1C1c3ccccc3C2c2ccccc21
[1]
  survivor count: 3 of 3

## O=c1[nH]c(=O)c(C2OC(CO)C(O)C2O)co1 (stereo not given)
dose: 25.0 mg/kg/injection, schedule: Q04DX003 (ip), vehicle: saline with Tween-80
  survivor count: 2 of 6

## NC(N)=NCCCNCCCN=C(N)N
dose: 280.0 mg/kg/injection, schedule: Q01DX Z (oral), vehicle: saline
  survivor count: 3 of 6
dose: 560.0 mg/kg/injection, schedule: Q01DX Z (oral), vehicle: saline
  survivor count: 1 of 6

## CC1=CC(=O)N(CCl)C1=O
[5]
  survivor count: 0 of 6

## Nc1[nH]nc2nc(-c3ccc(Cl)cc3)cnc12
[5]
  survivor count: 6 of 6

## CCc1ccc(NC(=O)NCCCl)cc1
[13]
  survivor count: 1 of 3

## O=CNC1CCCCC1c1ccc(C2CCCCC2NC=O)cc1 (stereo not given)
[8]
  survivor count: 0 of 6
[9]
  survivor count: 0 of 6

## N#CCN1Cc2ccccc2CCc2ccccc2C1
[6]
  survivor count: 2 of 6

## Cc1nc(N)sc1CCCl
dose: 80.0 mg/kg/injection, schedule: Q01DX015 (ip), vehicle: carboxymethylcellulose (CMC)
  survivor count: 3 of 6
dose: 120.0 mg/kg/injection, schedule: Q01DX015 (ip), vehicle: carboxymethylcellulose (CMC)
  survivor count: 0 of 6

## CC(C)C12CCC(=O)C=C1CCCC2OC(=O)c1ccccc1C(=O)O (stereo not given)
[5]
  survivor count: 0 of 6

## CN(C)CCNCc1ccccc1
[12]
  survivor count: 2 of 6
[8]
  survivor count: 1 of 6
[9]
  survivor count: 1 of 6

## Cc1cccc(-c2nc3cc(Cl)ccc3c(=O)o2)c1
[6]
  survivor count: 0 of 6

## CCN(CC)CCC(=O)c1cccs1
[2]
  survivor count: 0 of 6

## CCCCN(C(C)(C)C(SSSC(c1ccc(Cl)cc1)C(C)(C)N(CCCC)S(C)(=O)=O)c1ccc(Cl)cc1)S(C)(=O)=O (stereo not given)
[10]
  survivor count: 1 of 6

## NC(=O)c1cccc([N+](=O)[O-])c1Br
[6]
  survivor count: 3 of 6

## NNC(=O)CNc1ccc(F)c(F)c1
[13]
  survivor count: 0 of 3

## O=P(NN1CCCCC1)(NN1CCCCC1)c1ccccc1
dose: 400.0 mg/kg/injection, schedule: Q01DX009 (ip), vehicle: carboxymethylcellulose (CMC)
  survivor count: 0 of 6

## O=NN(C(=O)Nc1ccccc1)c1ccccc1
dose: 200.0 mg/kg/injection, schedule: Q01DX001 (ip), vehicle: carboxymethylcellulose (CMC)
  survivor count: 0 of 6
[11]
  survivor count: 0 of 6
dose: 400.0 mg/kg/injection, schedule: Q01DX001 (ip), vehicle: carboxymethylcellulose (CMC)
  survivor count: 0 of 6
dose: 500.0 mg/kg/injection, schedule: Q01DX001 (ip), vehicle: carboxymethylcellulose (CMC)
  survivor count: 0 of 6
dose: 600.0 mg/kg/injection, schedule: Q01DX001 (ip), vehicle: carboxymethylcellulose (CMC)
  survivor count: 0 of 6
dose: 700.0 mg/kg/injection, schedule: Q01DX001 (ip), vehicle: carboxymethylcellulose (CMC)
  survivor count: 0 of 6
dose: 800.0 mg/kg/injection, schedule: Q01DX001 (ip), vehicle: carboxymethylcellulose (CMC)
  survivor count: 0 of 6
dose: 1000.0 mg/kg/injection, schedule: Q01DX001 (ip), vehicle: carboxymethylcellulose (CMC)
  survivor count: 0 of 6

## NC(N)=NCCc1ccccc1
[3]
  survivor count: 0 of 6
[4]
  survivor count: 0 of 6
[5]
  survivor count: 0 of 6
